Data: article PMC10564737, “Structure-based design of a phosphotyrosine-masked covalent ligand targeting the E3 ligase SOCS2” (Nature Communications, 2023)
Several values for one entry are separate records, joined by “and”; a condition that tells them apart may be missing. Identical values can stand only once. Further values from the same series stand in other lists.

Chains of the proteins cited; added tags and fusions are not shown. Residues count along the entry.
UniProt O14508, 32-198: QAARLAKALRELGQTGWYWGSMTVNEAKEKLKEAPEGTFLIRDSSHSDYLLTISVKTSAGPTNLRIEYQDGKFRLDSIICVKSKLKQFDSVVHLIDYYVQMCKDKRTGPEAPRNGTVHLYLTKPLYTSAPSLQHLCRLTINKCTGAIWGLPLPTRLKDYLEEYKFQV

Molecular target: T1, SBC2 (Homo sapiens, UniProt O14508)
T1 construct: SOCS2 (amino acids 32–198); His6 (N, cleaved yes); made in house; host or cells: E. coli BL21(DE3)
Assay: Covalent fluorescence polarization (FP) probe displacement assay
Assay type: binding
Source text: With the specific covalent modification of Cys111 established, we decided to fully characterize MN551 as a covalent SOCS2 inhibitor. […] (Fig. 2g, h, Supplementary Fig. 9). Due to the covalent nature of the competing inhibitor, a time-dependent reduction in the fraction of protein-bound probe is observed. […] This value illustrates reasonable specificity for a covalent inhibitor, with nonetheless scope for future optimization. In addition to characterizing the kinetic covalency parameters, we have also assessed the stability of the MN551 by monitoring its reactivity (half-life >70 min) with reduced glutathione (GSH) (Supplementary Fig. 10)[35].
To monitor the SBC2-ligand binding kinetics we designed a fluorescein-labeled small-molecule probe - compound 26. The fluorescence polarization (anisotropy) of a threefold serial dilution of 50 µM SBC2 in 10 nM of the probe in 100 mM HEPES pH 7.5, 50 mM NaCl, 0.5 mM TCEP, 2% DMSO was measured to determine the KL (Supplementary Fig. 9A) (BMG Labtech PHERAstar – firmware v1.33). Protein titration and the curves were fitted using GraphPad Prism 9, using one-site fitting models to determine the probe binding constant, KL. Samples were run in triplicate in 384 well plates, using a total volume per well of 16 μL. The bound fraction of the probe is measure using the equation:1 Fb=Af−A/Af−Ab Where,
A time-dependent reduction in probe anisotropy were measured for a 2-fold serial dilution of […] compound MN551 in 10 nM probe +300 μM SBC2. To determine the initial reversible binding affinity, the initial bound fraction of the probe at time = 0, Fbo (the y-intercept in Fb v/s Time plot, Supplementary Fig. 9B) was plotted against MN551 concentration, and the obtained IC50 is then converted to Ki (Supplementary Fig. 9C)[17]. The slope from Fb versus time graph when divided by Fbo gives rate of covalency, kobs. A plot of kobs v/s MN551 concentration using Michaelis–Menten model of GraphPad Prism 9, provides the parameters kinact (maximum potential rate of inactivation) and KI (concentration of MN551 at which kobs = kinact/2) (Supplementary Fig. 9D, E).
The observed first-order rate constant, kobs is related to KI and kinact by the equation:2 kobs=kinactI/KI+I
At [I]«[KI] the above equation is converted to3 […]
The slope from the plot of kobs against concentration of MN551 gives us the covalent efficiency parameter kinact/KI (Supp Fig. 9F)[30],[33].

[1] = MN551 1000 nM, Cycle 9 (40 min)
[2] = MN551 1000 nM, Cycle 10 (45 min)
[3] = MN551 1000 nM, Cycle 11 (50 min)
[4] = MN551 1000 nM, Cycle 12 (55 min)
[5] = MN551 1000 nM, Cycle 16 (75 min), n=1
[6] = MN551 1000 nM, Cycle 17 (80 min), n=1
[7] = MN551 1000 nM, Cycle 18 (85 min), n=1
[8] = MN551 1000 nM; Cycle 7 (30 min)
[9] = MN551 1000 nM; Cycle 8 (35 min)
[10] = MN551 1000 nM; Cycle 9 (40 min)
[11] = MN551 1000 nM; Cycle 10 (45 min)
[12] = MN551 1000 nM; Cycle 11 (50 min)
[13] = MN551 1000 nM; Cycle 13 (60 min); n=1
[14] = MN551 1000 nM; Cycle 14 (65 min); n=1
[15] = MN551 1000 nM; Cycle 15 (70 min); n=1
[16] = MN551 1000 nM; Cycle 16 (75 min); n=1
[17] = MN551 1562.5 nM, Cycle 8 (35 min)
[18] = MN551 1562.5 nM, Cycle 9 (40 min)
[19] = MN551 1562.5 nM, Cycle 10 (45 min)
[20] = MN551 1562.5 nM; Cycle 7 (30 min)
[21] = MN551 1562.5 nM; Cycle 8 (35 min)
[22] = MN551 1562.5 nM; Cycle 9 (40 min)
[23] = MN551 1562.5 nM; Cycle 10 (45 min)
[24] = MN551 1562.5 nM; Cycle 11 (50 min)
[25] = MN551 1562.5 nM; Cycle 12 (55 min); n=1

O=C(CCl)Nc1cccc(CNC(=O)[C@H](Cc2ccc(OP(=O)(O)O)cc2)NC(=O)Cc2ccc(F)cc2)c1 [MN551]
Anisotropy based on Raw Data (485) [1]: 248.8 and 246.8 and 245.6
Fb [1]: 0.6207 and 0.612 and 0.6002
Anisotropy based on Raw Data (485) [2]: 246.1 and 245.5 and 244.9
Fb [2]: 0.6298 and 0.6168 and 0.6134
Anisotropy based on Raw Data (485) [3]: 244.7 and 243.4
Fb [3]: 0.6093 and 0.5602 and 0.5741
Anisotropy based on Raw Data (485) [4]: 242.1 and 242.8 and 240.5
Fb [4]: 0.5902 and 0.5787 and 0.5488
Anisotropy (MN551 1000 nM, Cycle 14 (65 min), n=1): 231.5 and 232.5 and 228.7
Anisotropy (MN551 1000 nM, Cycle 15 (70 min), n=1): 229 and 228.9 and 227
Anisotropy [5]: 226.1 and 227.9 and 226.8
Normalised anisotropy (0 nM MN551 = 1, free probe = 0) [5]: 0.5335 and 0.5648 and 0.5535
Anisotropy [6]: 225 and 226.8 and 221.1
Anisotropy based on Raw Data (485) [6]: 232 and 234.1 and 230.6
Normalised anisotropy (0 nM MN551 = 1, free probe = 0) [6]: 0.5404 and 0.5469 and 0.5176
Anisotropy [7]: 224 and 223.3 and 222.4
Normalised anisotropy (0 nM MN551 = 1, free probe = 0) [7]: 0.5382 and 0.5316 and 0.5493
Fb, fraction bound (MN551 1000 nM; Cycle 4 (15 min)): 0.7519 and 0.7352 and 0.7595
Fb, fraction bound (MN551 1000 nM; Cycle 5 (20 min)): 0.7373 and 0.7273 and 0.725
Fb, fraction bound (MN551 1000 nM; Cycle 6 (25 min)): 0.7022 and 0.7159 and 0.7173
Anisotropy data 485,520,520 [8]: 244.7 and 239.5 and 240.8
Fb [8]: 0.7698 and 0.7515 and 0.8229
Fb, fraction bound [8]: 0.6756 and 0.706 and 0.6924
Anisotropy [9]: 245.8 and 242.4
Anisotropy data 485,520,520 [9]: 245.9 and 236.7 and 239.8
Fb [9]: 0.7397 and 0.7682 and 0.7754 and 0.7024 and 0.6846 and 0.6767
Anisotropy [10]: 243.4 and 244.2 and 240
Anisotropy data 485,520,520 [10]: 242 and 235.6 and 236
Fb [10]: 0.7205 and 0.7399 and 0.7699 and 0.686 and 0.6638 and 0.6505
Anisotropy [11]: 241.2 and 241.3 and 239.6
Anisotropy data 485,520,520 [11]: 240.4 and 234.3
Fb [11]: 0.7197 and 0.7244 and 0.7852 and 0.667 and 0.6534 and 0.6566
Anisotropy [12]: 237.4 and 239 and 237.6
Anisotropy data 485,520,520 [12]: 237.7 and 229.7 and 230.1
Fb [12]: 0.6355 and 0.6418 and 0.6543
Fb (MN551 1000 nM; Cycle 11 (50 min); column head blank in this cycle): 0.6962 and 0.7216 and 0.7551
Anisotropy (MN551 1000 nM; Cycle 12 (55 min); n=1): 236.1 and 228.9 and 227
Anisotropy (MN551 1000 nM; Cycle 13 (60 min)): 231.5 and 234.1 and 232.1
Anisotropy [13]: 234.8 and 228.6 and 229.2
Anisotropy based on Raw Data (485) [13]: 242.2 and 239.3 and 238.7
Anisotropy [14]: 234.6 and 226.2 and 224.7
Anisotropy based on Raw Data (485) [14]: 238.9 and 237.5 and 235.8
Anisotropy [15]: 232.3 and 224.1 and 225.6
Anisotropy based on Raw Data (485) [15]: 236 and 234.8 and 234.5
Anisotropy [16]: 228.8 and 223.6 and 223.9
Anisotropy based on Raw Data (485) [16]: 234.4 and 230.8 and 231.7
Anisotropy data 485,520,520 (MN551 1000 nM; Cycle 20 (95 min); n=1): 220.8 and 218.3 and 217
Fb (MN551 1562.5 nM, Cycle 7 (30 min)): 0.6133 and 0.7041 and 0.6631
Anisotropy based on Raw Data (485) [17]: 246.7 and 248.5 and 246
Fb [17]: 0.5874 and 0.6844 and 0.667
Anisotropy based on Raw Data (485) [18]: 246.3 and 246.5 and 240.7
Fb [18]: 0.5839 and 0.679 and 0.6245
Anisotropy based on Raw Data (485) [19]: 241.9 and 244.9 and 238.2
Fb [19]: 0.5501 and 0.6614 and 0.6247
Anisotropy (MN551 1562.5 nM, Cycle 13 (60 min), n=1): 230.4 and 231.9 and 230.5
Anisotropy (MN551 1562.5 nM, Cycle 14 (65 min), n=1): 228.7 and 231.5 and 228.5
Anisotropy (MN551 1562.5 nM, Cycle 15 (70 min), n=1): 225.2 and 227.3 and 225.9
Anisotropy (MN551 1562.5 nM, Cycle 16 (75 min), n=1): 224.8 and 225.1 and 221.1
Anisotropy (MN551 1562.5 nM, Cycle 17 (80 min), n=1): 222.9
Anisotropy (MN551 1562.5 nM, Cycle 18 (85 min), n=1): 217.8 and 219.6 and 219.1
Fb, fraction bound (MN551 1562.5 nM; Cycle 4 (15 min)): 0.7431 and 0.7546 and 0.7331
Fb, fraction bound (MN551 1562.5 nM; Cycle 5 (20 min)): 0.7004 and 0.7516 and 0.7303
Fb, fraction bound (MN551 1562.5 nM; Cycle 6 (25 min)): 0.6793 and 0.7386 and 0.7023
Anisotropy data 485,520,520 [20]: 246.2 and 249.3 and 251.2
Fb [20]: 0.7126 and 0.719 and 0.7493
Fb, fraction bound [20]: 0.6932 and 0.739 and 0.6761
Anisotropy [21]: 243.2 and 244.7 and 242.9
Anisotropy data 485,520,520 [21]: 242.8 and 247 and 247.2
Fb [21]: 0.6667 and 0.6901 and 0.7085 and 0.651 and 0.666 and 0.6554
Anisotropy [22]: 242.6 and 242.9 and 240.5
Anisotropy data 485,520,520 [22]: 240.7 and 243.8 and 245.3
Fb [22]: 0.662 and 0.6743 and 0.6977 and 0.6387 and 0.6597 and 0.6438
Anisotropy [23]: 237.9 and 240 and 241.6
Anisotropy data 485,520,520 [23]: 237.7 and 240.6 and 241.5
Fb [23]: 0.6441 and 0.6528 and 0.666 and 0.5983 and 0.6465 and 0.6605
Anisotropy [24]: 235.7 and 239.2 and 235.4
Anisotropy based on Raw Data (485) [24]: 240 and 242.6 and 237.8
Anisotropy (MN551 1562.5 nM; Cycle 11 (50 min); n=1): 233.7 and 239.5 and 237.9
Anisotropy [25]: 232.6 and 237.1 and 235.3
Anisotropy based on Raw Data (485) [25]: 237.4 and 239.9 and 235.4
